The test addresses 癌胚抗原 (CEA) 抗原 (UniProt P06731). In words: ELISA, CEA antigen coated, detection with anti-His-HRP. (ELISA stands for enzyme-linked immunosorbent assay.)

The chains behind the UniProt entries cited, without tags or fusion partners. Residues count along the entry.
UniProt P06731, residues 35-685: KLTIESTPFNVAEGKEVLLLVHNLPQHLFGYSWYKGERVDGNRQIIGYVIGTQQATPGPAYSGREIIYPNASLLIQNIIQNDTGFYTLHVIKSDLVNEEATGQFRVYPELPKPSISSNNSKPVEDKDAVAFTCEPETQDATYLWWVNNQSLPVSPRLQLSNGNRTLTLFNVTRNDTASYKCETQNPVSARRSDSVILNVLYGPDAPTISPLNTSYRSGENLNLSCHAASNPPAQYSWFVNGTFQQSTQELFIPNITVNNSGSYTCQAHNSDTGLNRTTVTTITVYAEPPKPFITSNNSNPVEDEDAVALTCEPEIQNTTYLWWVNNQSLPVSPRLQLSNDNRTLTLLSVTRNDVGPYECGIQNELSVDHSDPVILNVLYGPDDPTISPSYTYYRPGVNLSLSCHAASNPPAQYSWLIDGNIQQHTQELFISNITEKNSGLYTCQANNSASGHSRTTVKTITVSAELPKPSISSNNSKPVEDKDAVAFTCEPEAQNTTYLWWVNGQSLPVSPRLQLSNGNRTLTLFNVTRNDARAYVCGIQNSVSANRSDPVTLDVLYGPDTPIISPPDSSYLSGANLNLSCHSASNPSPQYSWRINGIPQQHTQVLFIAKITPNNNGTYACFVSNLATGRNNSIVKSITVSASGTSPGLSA

No constants are given. Whether binding was seen depends on the method and setting. Some binding calls cover weakened binding; strength is not graded here.

Drawing on patent CN112724255A, this text covers binding for 1 molecule.

B1: 96ScFv 单链抗体 (靶向癌胚抗原的小分子抗体) (scFv)
scFv: MGQVRLRESGPSLVKPSQTLSLTCTVSGFSLTKYGVSWVRQAPGKALEWLGGVSSGALTAYNTALQSRLSVTRDTSKSQFSLSLSSVTTEDTAIYYCAKSVNGDSVPYGLDYWSPGLLITVSSGGGGSGGGGSGGGGSQAVLTQPSSVSGSLGQRVSITCSGSSSNIGGNAYVGWYQQVPGSAPRLLISATTDRASGIPDRFFGSRSGNTATLTISSLQAEDEADYYCASYQSTYSGVFGSGTMLAVLGTVAAPSVFHHHHHHHLGGC
Turning to B1, the binding result is listed as “binds”.
